# Assay results reported in the supplement of paper PMC8728848.
# This is one part of the list.
# Assays:
# Assay in all cases: glycan array binding signal (z-score within array); higher = stronger binding
# Settings in all cases: glycan notation: IUPAC condensed, linker removed; mutation: Q318A
# [1] = molecular target: Neu5Ac(a2-3)Gal(b1-4)GlcNAc(b1-3)Gal(b1-4)GlcNAc(b1-2)Man(a1-3)[Neu5Ac(a2-3)Gal(b1-4)GlcNAc(b1-3)Gal(b1-4)GlcNAc(b1-2)Man(a1-6)]Man(b1-4)GlcNAc(b1-4)GlcNAc
# Summary of the method: (§1)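 Arrays were curated from the Consortium for Functional Glycomics database, 3228 in total, and kept only where the protein sequence was available. Binding is expressed as a within-array Z-score. This score was averaged across arrays of the same protein sequence at different concentrations or buffers and across linkers, and negative values can be read as non-binding.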
# [2] = molecular target: Neu5Ac(a2-3)Gal(b1-4)GlcNAc(b1-3)Gal(b1-4)GlcNAc(b1-3)Gal(b1-4)GlcNAc
# Summary of the method: as §1
# [3] = molecular target: Neu5Ac(a2-3)Gal(b1-4)GlcNAc(b1-3)Gal(b1-4)GlcNAc(b1-3)Gal(b1-4)GlcNAc(b1-2)Man(a1-3)[Neu5Ac(a2-3)Gal(b1-4)GlcNAc(b1-3)Gal(b1-4)GlcNAc(b1-3)Gal(b1-4)GlcNAc(b1-2)Man(a1-6)]GalNAc
# Summary of the method: as §1
# [4] = molecular target: Neu5Ac(a2-3)Gal(b1-4)GlcNAc(b1-3)Gal(b1-4)GlcNAc(b1-3)GalNAc
# Summary of the method: as §1
# [5] = molecular target: Neu5Ac(a2-3)Gal(b1-4)GlcNAc(b1-3)Gal(b1-4)GlcNAc(b1-3)[Neu5Ac(a2-3)Gal(b1-4)GlcNAc(b1-3)Gal(b1-4)GlcNAc(b1-6)]GalNAc
# Summary of the method: as §1
# [6] = molecular target: Neu5Ac(a2-3)Gal(b1-4)GlcNAc(b1-3)Gal(b1-4)GlcNAc(b1-6)[Gal(b1-3)]GalNAc
# Summary of the method: as §1
# [7] = molecular target: Neu5Ac(a2-3)Gal(b1-4)GlcNAc(b1-3)Gal(b1-4)[Fuc(a1-3)]GlcNAc
# Summary of the method: as §1
# [8] = molecular target: Neu5Ac(a2-3)Gal(b1-4)GlcNAc(b1-3)GalNAc
# Summary of the method: as §1
# [9] = molecular target: Neu5Ac(a2-3)Gal(b1-4)GlcNAc(b1-3)[Neu5Ac(a2-3)Gal(b1-4)GlcNAc(b1-6)]GalNAc
# Summary of the method: as §1
# [10] = molecular target: Neu5Ac(a2-3)Gal(b1-4)GlcNAc(b1-6)GalNAc
# Summary of the method: as §1
# [11] = molecular target: Neu5Ac(a2-3)Gal(b1-4)GlcNAc(b1-6)[Gal(b1-3)]GalNAc
# Summary of the method: as §1
# [12] = molecular target: Neu5Ac(a2-3)Gal(b1-4)GlcNAc(b1-6)[Neu5Ac(a2-3)Gal(b1-3)]GalNAc
# Summary of the method: as §1
# [13] = molecular target: Neu5Ac(a2-3)Gal(b1-4)GlcNAc6S
# Summary of the method: as §1
# [14] = molecular target: Neu5Ac(a2-3)Gal(b1-4)[Fuc(a1-3)]GlcNAc
# Summary of the method: as §1
# [15] = molecular target: Neu5Ac(a2-3)Gal(b1-4)[Fuc(a1-3)]GlcNAc(b1-2)Man
# Summary of the method: as §1
# [16] = molecular target: Neu5Ac(a2-3)Gal(b1-4)[Fuc(a1-3)]GlcNAc(b1-3)Gal
# Summary of the method: as §1
# [17] = molecular target: Neu5Ac(a2-3)Gal(b1-4)[Fuc(a1-3)]GlcNAc(b1-3)Gal(b1-4)GlcNAc
# Summary of the method: as §1
# [18] = molecular target: Neu5Ac(a2-3)Gal(b1-4)[Fuc(a1-3)]GlcNAc(b1-3)Gal(b1-4)[Fuc(a1-3)]GlcNAc(b1-3)Gal(b1-4)[Fuc(a1-3)]GlcNAc
# Summary of the method: as §1
# [19] = molecular target: Neu5Ac(a2-3)Gal(b1-4)[Fuc(a1-3)]GlcNAc(b1-3)GalNAc
# Summary of the method: as §1
# [20] = molecular target: Neu5Ac(a2-3)Gal(b1-4)[Fuc(a1-3)]GlcNAc(b1-6)[Gal(b1-3)]GalNAc
# Summary of the method: as §1
# [21] = molecular target: Neu5Ac(a2-3)Gal(b1-4)[Fuc(a1-3)]GlcNAc(b1-6)[Neu5Ac(a2-3)Gal(b1-3)]GalNAc
# Summary of the method: as §1
# [22] = molecular target: Neu5Ac(a2-3)Gal(b1-4)[Fuc(a1-3)]GlcNAc6S
# Summary of the method: as §1
# [23] = molecular target: Neu5Ac(a2-3)Gal6S(b1-4)GlcNAc
# Summary of the method: as §1
# [24] = molecular target: Neu5Ac(a2-3)Gal6S(b1-4)[Fuc(a1-3)]GlcNAc
# Summary of the method: as §1
# Neu5Ac(a2-3)GalNAc = molecular target: Neu5Ac(a2-3)GalNAc
# Summary of the method: as §1
# [25] = molecular target: Neu5Ac(a2-3)GalNAc(b1-4)GlcNAc
# Summary of the method: as §1
# [26] = molecular target: Neu5Ac(a2-3)[GalNAc(b1-4)]Gal(b1-4)Glc
# Summary of the method: as §1
# [27] = molecular target: Neu5Ac(a2-3)[GalNAc(b1-4)]Gal(b1-4)GlcNAc
# Summary of the method: as §1
# [28] = molecular target: Neu5Ac(a2-3)[GalNAc(b1-4)]Gal(b1-4)GlcNAc(b1-3)GalNAc
# Summary of the method: as §1
# [29] = molecular target: Neu5Ac(a2-3)[Neu5Ac(a2-6)]GalNAc
# Summary of the method: as §1
# Neu5Ac(a2-6)Gal = molecular target: Neu5Ac(a2-6)Gal
# Summary of the method: as §1
# [30] = molecular target: Neu5Ac(a2-6)Gal(b1-3)GlcNAc(b1-3)[Gal(b1-4)GlcNAc(b1-6)]Gal(b1-4)Glc
# Summary of the method: as §1
# Neu5Ac(a2-6)Gal(b1-4)Glc = molecular target: Neu5Ac(a2-6)Gal(b1-4)Glc
# Summary of the method: as §1
# [31] = molecular target: Neu5Ac(a2-6)Gal(b1-4)GlcNAc
# Summary of the method: as §1
# [32] = molecular target: Neu5Ac(a2-6)Gal(b1-4)GlcNAc(b1-2)Man
# Summary of the method: as §1
# [33] = molecular target: Neu5Ac(a2-6)Gal(b1-4)GlcNAc(b1-2)Man(a1-3)Man(b1-4)GlcNAc(b1-4)GlcNAc
# Summary of the method: as §1
# [34] = molecular target: Neu5Ac(a2-6)Gal(b1-4)GlcNAc(b1-2)Man(a1-3)[Gal(b1-4)GlcNAc(b1-2)Man(a1-6)]Man(b1-4)GlcNAc(b1-4)GlcNAc
# Summary of the method: as §1
# [35] = molecular target: Neu5Ac(a2-6)Gal(b1-4)GlcNAc(b1-2)Man(a1-3)[GlcNAc(b1-2)Man(a1-6)]Man(b1-4)GlcNAc(b1-4)GlcNAc
# Summary of the method: as §1
binder,measurement,setting,value
"SUN4 (Saccharomyces cerevisiae), P53616 (protein) MGSSHHHHHHSSGLVPRGSHNGSIYGDLADFSGPYEKFEDGTIPCGQFPSGQGVIPISWLDEGGWSGVENTDTSTGGSCKEGSYCSYACQPGMSKTQWPSDQPSDGRSIGGLLCKDGYLYRSNTDTDYLCEWGVDAAYVVSELSNDVAICRTDYPGTENMVIPTYVQAGDSLPLTVVDQDTYYTWQGLKTSAAYYVNNAGISVEDACVWGSSSSGVGNWAPLNFGAGSSDGVAYLSLIPNPNNGNALNFNVKIVAADDSSTVNGECIYENGSFSGGSDGCTVSVTAGKAKFVLYN",glycan array binding signal (z-score),[1],0.264
same,glycan array binding signal (z-score),[2],0.081
same,glycan array binding signal (z-score),[3],0.449
same,glycan array binding signal (z-score),[4],0.859
same,glycan array binding signal (z-score),[5],0.746
same,glycan array binding signal (z-score),[6],-0.202
same,glycan array binding signal (z-score),[7],1.36
same,glycan array binding signal (z-score),[8],0.311
same,glycan array binding signal (z-score),[9],2.5
same,glycan array binding signal (z-score),[10],-0.453
same,glycan array binding signal (z-score),[11],-0.111
same,glycan array binding signal (z-score),[12],-0.893
same,glycan array binding signal (z-score),[13],-0.572
same,glycan array binding signal (z-score),[14],-0.771
same,glycan array binding signal (z-score),[15],-0.965
same,glycan array binding signal (z-score),[16],0
same,glycan array binding signal (z-score),[17],-0.286
same,glycan array binding signal (z-score),[18],-0.091
same,glycan array binding signal (z-score),[19],0.527
same,glycan array binding signal (z-score),[20],0.041
same,glycan array binding signal (z-score),[21],3.41
same,glycan array binding signal (z-score),[22],0.647
same,glycan array binding signal (z-score),[23],0.026
same,glycan array binding signal (z-score),[24],-0.138
same,glycan array binding signal (z-score),Neu5Ac(a2-3)GalNAc,0.196
same,glycan array binding signal (z-score),[25],-0.252
same,glycan array binding signal (z-score),[26],-1.2
same,glycan array binding signal (z-score),[27],-0.774
same,glycan array binding signal (z-score),[28],0.404
same,glycan array binding signal (z-score),[29],-0.793
same,glycan array binding signal (z-score),Neu5Ac(a2-6)Gal,1.02
same,glycan array binding signal (z-score),[30],0.911
same,glycan array binding signal (z-score),Neu5Ac(a2-6)Gal(b1-4)Glc,-0.729
same,glycan array binding signal (z-score),[31],-0.279
same,glycan array binding signal (z-score),[32],0.277
same,glycan array binding signal (z-score),[33],-1.09
same,glycan array binding signal (z-score),[34],-0.494
same,glycan array binding signal (z-score),[35],0.327

# A portion from the list above:
binder,measurement,setting,value
"SUN4 (Saccharomyces cerevisiae), P53616 (protein) MGSSHHHHHHSSGLVPRGSHNGSIYGDLADFSGPYEKFEDGTIPCGQFPSGQGVIPISWLDEGGWSGVENTDTSTGGSCKEGSYCSYACQPGMSKTQWPSDQPSDGRSIGGLLCKDGYLYRSNTDTDYLCEWGVDAAYVVSELSNDVAICRTDYPGTENMVIPTYVQAGDSLPLTVVDQDTYYTWQGLKTSAAYYVNNAGISVEDACVWGSSSSGVGNWAPLNFGAGSSDGVAYLSLIPNPNNGNALNFNVKIVAADDSSTVNGECIYENGSFSGGSDGCTVSVTAGKAKFVLYN",glycan array binding signal (z-score),[26],-1.2
same,glycan array binding signal (z-score),[27],-0.774
